According to US20190233824:
Results from cells or extracts need not show a direct contact.

Chains of the proteins cited; added tags and fusions are not shown. Residues count along the entry.
UniProt Q15116, 25-288: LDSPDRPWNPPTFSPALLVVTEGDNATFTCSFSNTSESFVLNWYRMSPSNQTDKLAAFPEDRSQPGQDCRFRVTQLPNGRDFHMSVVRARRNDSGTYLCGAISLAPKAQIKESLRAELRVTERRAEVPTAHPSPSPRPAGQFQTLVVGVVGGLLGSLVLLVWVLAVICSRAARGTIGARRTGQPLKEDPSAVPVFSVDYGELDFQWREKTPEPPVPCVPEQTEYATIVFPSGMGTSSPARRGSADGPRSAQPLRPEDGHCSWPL

Legend:
[1] = target: PD-1 (endogenous, on HEL 92.1.7 cells) (Homo sapiens) (UniProt Q15116); assay: flow cytometry; details: protein on the cell surface, single-stranded DNA
[2] = target: PD-1 (endogenous, in total cell lysate of HEL 92.1.7 / KG-1) (Homo sapiens) (UniProt Q15116); assay: BLI; details: per-concentration fits 0.727, 0.691, 0.555, 0.286 nM, same buffer, 25 C, protein in an extract, label: 5' biotin (BLI) or FAM (flow), single-stranded DNA

## CCGTATACATACCTGATAGCGTATGCGAGGAGAGGGATTGGTGTGGTGGGGCTCTCTCAGTAGGTGCATAAGCGCATGCATGC [15-120-298]
[1]; label: fluorescein
  binding result: binds

## CCGTATACATACCTGATAGCGTATGCGAGGAAGTGGGCTTGGTGTGGTGGGCTTCTCTCAGTAGGTGCATAAGCGCATGCATGC [fpf2 (10-150-373)]
[2]
  binding result: binds
[1]; label: 5' biotin (BLI) or FAM (flow)
  binding result: binds
